Measurements reported in PubChem BioAssay AID1224828 (NIAID, 2016).
Purpose: 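Regulators linking TLR4 signalling to p65 nuclear translocation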 (primary screen). Cell system: mouse RAW264.7 G9 macrophage reporter cells (GFP-p65, Tnf promoter-mCherry). Knock-down reagent: siRNA pool against mouse genes, 100 nM. Duration: 2 days siRNA transfection, then 40 min LPS before fixation. Challenge: LPS (Salmonella minnesota R595) at 10 ng/ml. Measurement: 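Imaged p65 nuclear translocation ratio, normalised to the plate median, converted to robust z-scores and averaged across two replicates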. Direction: p65 translocation robust z-score: higher = more nuclear NF-kappaB p65 after LPS than the plate median; nuclear/cytoplasmic p65 ratio: higher = more nuclear NF-kappaB p65. Rule for the call: 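Active if robust z is above 3.3 (negative regulators) or below -1.56, the Tlr4 control median (positive regulators); activity score 50 or more; control wells not called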. Meaning of the calls: active = hit (p65 shift raised or lowered); inactive = no clear change.
The deposit covers about 17,000 reagents; this is a random part of them. Over the whole deposit, 762 (4.5%) were called active. 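Active calls include both raised and lowered p65 entry, mostly lowered; wells with fewer than 50 cells lack a z-score.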 Raw values are not corrected between plates.

For Sdc3 (syndecan 3), the entry reads p65 translocation robust z-score -1.27; nuclear/cytoplasmic p65 ratio, rep 1 = 1.18; nuclear/cytoplasmic p65 ratio, rep 2 = 1.13; low cell count flag enough cells to score; inactive. Silencing of Coro2a (coronin, actin binding protein 2A) came out at: p65 translocation robust z-score 0.47; nuclear/cytoplasmic p65 ratio, rep 1 = 1.44; nuclear/cytoplasmic p65 ratio, rep 2 = 1.52; low cell count flag enough cells to score; inactive. With knock-down of Trp53i11 (transformation related protein 53 inducible protein 11) the results were p65 translocation robust z-score -0.76; nuclear/cytoplasmic p65 ratio, rep 1 = 1.51; nuclear/cytoplasmic p65 ratio, rep 2 = 1.31; low cell count flag enough cells to score; inactive. With knock-down of Tktl2 (transketolase-like 2) the results were nuclear/cytoplasmic p65 ratio, rep 1 = 1.37; nuclear/cytoplasmic p65 ratio, rep 2 = 1.61; low cell count flag fewer than 50 cells per well; well left out of scoring; inactive. Maf1 (MAF1 homolog, negative regulator of RNA polymerase III) scored p65 translocation robust z-score 1.7; nuclear/cytoplasmic p65 ratio, rep 1 = 1.97; nuclear/cytoplasmic p65 ratio, rep 2 = 1.8; low cell count flag enough cells to score; inactive. For Or8a1b (olfactory receptor family 8 subfamily A member 1B), the entry reads nuclear/cytoplasmic p65 ratio, rep 1 = 1.52; nuclear/cytoplasmic p65 ratio, rep 2 = 1.24; low cell count flag fewer than 50 cells per well; well left out of scoring; inactive.

Against Ampd2 (adenosine monophosphate deaminase 2), the entry reads p65 translocation robust z-score 0.31; nuclear/cytoplasmic p65 ratio, rep 1 = 1.57; nuclear/cytoplasmic p65 ratio, rep 2 = 1.81; low cell count flag enough cells to score; inactive. For Mterf2 (mitochondrial transcription termination factor 2), the entry reads p65 translocation robust z-score -0.84; nuclear/cytoplasmic p65 ratio, rep 1 = 1.47; nuclear/cytoplasmic p65 ratio, rep 2 = 1.51; low cell count flag enough cells to score; inactive.

A few values from above.
Under “nuclear/cytoplasmic p65 ratio, rep 1”, Mterf2 (mitochondrial transcription termination factor 2) is entered as 1.47
Under “nuclear/cytoplasmic p65 ratio, rep 1”, Trp53i11 (transformation related protein 53 inducible protein 11) is entered as 1.51

Next records:
Or2a52 (olfactory receptor family 2 subfamily A member 52) scored p65 translocation robust z-score 0.35; nuclear/cytoplasmic p65 ratio, rep 1 = 1.49; nuclear/cytoplasmic p65 ratio, rep 2 = 1.31; low cell count flag enough cells to score; inactive. Against Golga1 (golgin A1), the values are p65 translocation robust z-score 0.05; nuclear/cytoplasmic p65 ratio, rep 1 = 1.59; nuclear/cytoplasmic p65 ratio, rep 2 = 1.61; low cell count flag enough cells to score; inactive. With knock-down of Use1 (unconventional SNARE in the ER 1 homolog (S. cerevisiae)) the results were nuclear/cytoplasmic p65 ratio, rep 1 = 1.29; nuclear/cytoplasmic p65 ratio, rep 2 = 1.38; low cell count flag fewer than 50 cells per well; well left out of scoring; inactive. Moxd1 (monooxygenase, DBH-like 1) scored p65 translocation robust z-score 1.12; nuclear/cytoplasmic p65 ratio, rep 1 = 1.78; nuclear/cytoplasmic p65 ratio, rep 2 = 1.92; low cell count flag enough cells to score; inactive. Gmppb (GDP-mannose pyrophosphorylase B) showed p65 translocation robust z-score -0.14; nuclear/cytoplasmic p65 ratio, rep 1 = 1.67; nuclear/cytoplasmic p65 ratio, rep 2 = 1.48; low cell count flag enough cells to score; inactive. After knock-down of Zdhhc20 (zinc finger, DHHC domain containing 20), the record shows nuclear/cytoplasmic p65 ratio, rep 1 = 1.38; nuclear/cytoplasmic p65 ratio, rep 2 = 1.21; low cell count flag fewer than 50 cells per well; well left out of scoring; inactive.
